Source: US20160369264A1 (HOWARD HUGHES MEDICAL INSTITUTE, published 2016)
No constants are given. Whether binding was seen depends on the method and setting. Some entries that bind do so weakly or less than the wild type. Tags and fused reporters may be left off the sequences shown.

Target: p3Z-42 fusion of the Integrin binder av6-3
Test: self-assembly of fusion trimers; negative-stain TEM of E. coli pellet

B1: p3Z-42 fusion of the Integrin binder av6-3 (designed binder, not shown: small tags and cut ends)
chain: MHNNRLQLSRLERVYQSEQAEKLLLAGVMLRDPARFDLRGSLTHGRDVEIDTNVIIEGNVSLGNRVKIGTGCVIKNSAIGDDCEISPYTVVEDAVLAAACTIGPFARLRPGAVLLEGAHVGNFVEMKKAVLGKGSKAGHLTYLGDAAIGDNVNIGAGTITCNYDGANKFTTIIGDDVFVGSDTQLVAPVSVGKGATIAAGTTVTRNVGANALAISRVPQTQKEGWRRPVKKKLE
binding: binds
